Results from cells or extracts need not show a direct contact. For some of these results: A negative result means that nothing was seen under these conditions. For some of these results: Where a protein sequence is shown, tags need not be part of it. For some of these results: For at least one entry, the source does not settle the construct or the ends of the probe.
Experiments:
[1] = system: NF-kappaB; assay: competition with a labelled probe; details: PS at 3 linkages from 3' end, both strands; 10x molar excess, TransAM; protein in an extract; variant of decoy 895/896
[2] = biological target: SP-1 (UniProt P08047); assay: competition with a labelled probe; details: PS at 3 linkages from 3' end, both strands; 10x molar excess, TransAM; protein in an extract; variant of decoy 895/896
[3] = biological target: T1, Oct-1 (Homo sapiens) (UniProt P14859); assay: competition with a labelled probe; details: PS at 3 linkages from 3' end, both strands; decoy does not inhibit Oct-1 probe binding; protein in an extract; variant of decoy 895/896
T1 sequence (looked up, limits assumed): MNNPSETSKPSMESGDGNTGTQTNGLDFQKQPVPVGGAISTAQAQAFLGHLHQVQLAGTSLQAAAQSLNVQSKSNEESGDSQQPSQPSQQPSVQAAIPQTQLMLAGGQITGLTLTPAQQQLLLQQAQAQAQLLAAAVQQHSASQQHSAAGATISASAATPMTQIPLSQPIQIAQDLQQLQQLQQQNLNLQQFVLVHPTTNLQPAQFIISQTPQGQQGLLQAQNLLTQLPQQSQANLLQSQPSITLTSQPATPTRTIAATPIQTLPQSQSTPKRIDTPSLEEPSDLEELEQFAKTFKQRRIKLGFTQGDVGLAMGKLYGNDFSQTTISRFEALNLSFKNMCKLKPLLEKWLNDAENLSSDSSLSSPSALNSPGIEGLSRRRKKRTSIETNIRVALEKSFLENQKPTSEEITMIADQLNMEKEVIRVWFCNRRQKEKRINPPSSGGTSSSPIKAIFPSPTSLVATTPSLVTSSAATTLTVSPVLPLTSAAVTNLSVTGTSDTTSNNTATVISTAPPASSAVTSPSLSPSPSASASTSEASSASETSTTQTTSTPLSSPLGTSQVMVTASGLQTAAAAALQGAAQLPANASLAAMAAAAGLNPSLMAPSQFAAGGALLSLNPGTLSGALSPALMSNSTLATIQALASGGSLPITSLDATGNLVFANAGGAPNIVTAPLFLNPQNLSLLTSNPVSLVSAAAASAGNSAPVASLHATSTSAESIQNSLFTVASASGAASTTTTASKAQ

Protein sequences, listed by entry. Tags and fused reporters are not part of them. Residues count along the entry.
UniProt P08047, 2-785: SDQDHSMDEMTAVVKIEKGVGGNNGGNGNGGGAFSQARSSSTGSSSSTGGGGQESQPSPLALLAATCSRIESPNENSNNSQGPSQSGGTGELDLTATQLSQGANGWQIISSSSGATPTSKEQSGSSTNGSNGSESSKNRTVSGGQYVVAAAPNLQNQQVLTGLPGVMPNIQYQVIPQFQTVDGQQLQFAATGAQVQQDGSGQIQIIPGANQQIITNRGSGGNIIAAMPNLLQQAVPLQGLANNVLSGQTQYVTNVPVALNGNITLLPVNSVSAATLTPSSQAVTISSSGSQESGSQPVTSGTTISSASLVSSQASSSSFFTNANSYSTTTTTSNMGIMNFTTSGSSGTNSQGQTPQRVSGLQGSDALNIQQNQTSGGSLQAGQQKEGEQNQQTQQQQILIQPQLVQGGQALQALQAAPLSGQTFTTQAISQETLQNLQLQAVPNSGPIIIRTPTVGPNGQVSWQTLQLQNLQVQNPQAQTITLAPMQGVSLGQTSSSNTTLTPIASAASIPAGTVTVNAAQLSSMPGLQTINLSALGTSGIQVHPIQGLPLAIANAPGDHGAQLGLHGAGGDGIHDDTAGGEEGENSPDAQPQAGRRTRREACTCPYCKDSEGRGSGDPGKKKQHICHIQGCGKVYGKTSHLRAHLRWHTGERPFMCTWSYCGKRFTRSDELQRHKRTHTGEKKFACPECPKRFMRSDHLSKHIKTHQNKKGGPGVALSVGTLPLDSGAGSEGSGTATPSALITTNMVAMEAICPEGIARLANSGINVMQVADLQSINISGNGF

[4] = system: HIF-1 (HIF-1alpha/HIF-1beta (ARNT) heterodimer); assay: EMSA; details: protein in an extract, label: 32P 5' end
[5] = biological target: T1, Oct-1 (Homo sapiens); assay: EMSA; details: MiaPaCa extract; protein in an extract; label: 32P 5' end

CACCAGCGTACGTGCCTCAGG (double strand) [895/896 H3/H3]
binding result [1]: no binding | binding result [2]: no binding | binding result [3]: no binding

CACCAGCGTACGTGCCTCAGG (double strand) [HIF decoy probe]
binding result ([4]; hypoxic MiaPaCa extract, supershift by HIF-1alpha and HIF-1beta antibodies): binds

CGCGAGCGTACGTGCCTCAGG (double strand) [transferrin receptor HIF site probe]
binding result [4]: binds

GCCCTACGTGCTGTCTCA (double strand) [EPO promoter HIF site probe]
binding result [4]: binds

TGTCGAATGCAAATCACTAGAA (double strand) [Oct-1 site probe]
binding result [5]: binds
